Assay results from US20020137113A1.
Results are given in words; binding and its absence hold for the method and conditions named. Some entries that bind do so weakly or less than the wild type.

Chains of the proteins cited; added tags and fusions are not shown. Lines headed by an entry give the natural chain unless they say otherwise; changes in a name come on top.
UniProt Q16620: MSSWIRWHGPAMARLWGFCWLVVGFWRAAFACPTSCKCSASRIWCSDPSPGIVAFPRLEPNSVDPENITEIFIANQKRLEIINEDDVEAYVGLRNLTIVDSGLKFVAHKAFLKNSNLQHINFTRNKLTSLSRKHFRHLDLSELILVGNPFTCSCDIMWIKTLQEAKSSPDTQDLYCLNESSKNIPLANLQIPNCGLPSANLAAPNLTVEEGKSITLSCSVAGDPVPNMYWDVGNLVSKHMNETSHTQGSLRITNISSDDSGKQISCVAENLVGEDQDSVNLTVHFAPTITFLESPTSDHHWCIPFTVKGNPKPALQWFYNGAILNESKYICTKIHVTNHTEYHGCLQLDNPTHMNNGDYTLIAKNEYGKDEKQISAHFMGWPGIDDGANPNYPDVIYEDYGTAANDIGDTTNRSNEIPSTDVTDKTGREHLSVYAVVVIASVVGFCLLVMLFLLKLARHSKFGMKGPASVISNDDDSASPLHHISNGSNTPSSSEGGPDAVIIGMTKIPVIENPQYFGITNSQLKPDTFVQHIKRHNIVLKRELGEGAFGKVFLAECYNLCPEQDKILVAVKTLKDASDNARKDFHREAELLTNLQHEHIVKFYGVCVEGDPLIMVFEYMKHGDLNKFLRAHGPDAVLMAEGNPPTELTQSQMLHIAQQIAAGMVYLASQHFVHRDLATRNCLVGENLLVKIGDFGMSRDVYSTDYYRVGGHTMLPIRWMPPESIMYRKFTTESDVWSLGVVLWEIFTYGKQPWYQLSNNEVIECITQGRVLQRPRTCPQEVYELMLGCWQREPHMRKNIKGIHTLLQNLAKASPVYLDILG

Target: gD.trk B (trk B receptor with the gD flag polypeptide fused to its amino terminus), in dp12.CHO cells (human) (UniProt Q16620)
Experiment: neurotrophin binding screen of gD.trk CHO clones

binding: binds
B1: neurotrophin 5 (NT5) (ligand, UniProt P34130 81-210, looked up)
chain: GVSETAPASRRGELAVCDAVSGWVTDRRTAVDLRGREVEVLGEVPAAGGSPLRQYFFETRCKADNAEEGGPGAGGGGCRGVDRRHWVSECKAKQSYVRALTADAQGRVGWRWIRIDTACVCTLLSRTGRA
